From PubChem BioAssay AID540276 (National Center for Advancing Translational Sciences (NCATS), 2011)
Out of some 300,000 compounds screened, about 5,400 (1.8%) were called active. Inconclusive means that the source gave no clear call. Such entries were picked first, then a sample of the others. Calls come from the whole dose curve; tested in HEK293 cells. Potencies beside an inconclusive call are fits to weak or partial responses and may not hold up.

Assay: qHTS for inhibitors of binding or entry into cells for Marburg Virus
Conditions: Marburg virus pseudotyped entry inhibition, cell reporter; series mostly up to 37.8 µM
Potency is the fitted concentration of half-maximal effect.

| SMILES | Potency |
| --- | --- |
| CCOC(=O)CSc1nnc(Cc2ccccc2)n1-c1cccc(Cl)c1 | inactive |
| COc1cc2c(cc1OC)CN(C(=O)CCOc1ccccc1)CC2 | inconclusive: 12.6 µM [inhibitor, single point] |
| COc1ccccc1OCC(=O)N1CC2(C)CC1CC(C)(C)C2 (stereo unspecified) | inactive |
| O=C(Nc1ccccc1C(=O)NCc1ccccc1)c1ccccc1Br | inconclusive: 0.651 µM [activator, full curve, poor fit] |
| CCCCN1C(=O)c2[nH]nc(-c3ccccc3O)c2C1c1ccc(OCc2ccccc2)cc1 (stereo unspecified) | inconclusive: 11.2 µM [inhibitor, partial curve] |
| O=C(CCN1C(=O)/C(=C/C=C/c2ccccc2)SC1=S)Nc1ccccn1 | inactive |
| COc1ccccc1CNC(=O)C(c1ccccc1)c1ccccc1 | inconclusive: 35.5 µM [inhibitor, single point] |
| COc1cc(OC)c(C2CC(=O)N3CN(c4ccc(C)cc4)CSC3=C2C#N)cc1OC (stereo unspecified) | inactive |
| Cc1csc(SCC(=O)Nc2ccc3[nH]c(=O)[nH]c3c2)n1 | inconclusive: 12.6 µM [inhibitor, single point] |
| COc1ccccc1NC(=O)c1[nH]c(C)c(C(C)=O)c1C | inconclusive: 28.2 µM [inhibitor, single point] |
| CCOC(=O)N1CCN(c2cc(NCCC(=O)O)c3c4c(onc24)-c2ccccc2C3=O)CC1 | inactive |
| CC(=O)c1ccc(N2CCN(C(=O)CCC(=O)Nc3ccc4nc(N5CCCCC5)cc(C)c4c3)CC2)cc1 | inactive |
| COc1ccc(CN(C)C(=O)Cc2c[nH]c3ccccc23)c(OC)c1OC | inconclusive: 35.5 µM [inhibitor, single point] |
| O=C(CN1C(=O)C2CCCN2c2ncc(Cl)cc21)NCc1ccc2c(c1)OCO2 (stereo unspecified) | inactive |
| Cc1ccc(OC(=O)C23CC4CC(CC(C4)C2)C3)c(C)n1 | inactive |
| COc1ccc(-n2c(-c3ccc(Br)cc3)c[n+]3c2CCC3)cc1 | inconclusive: 3.16 µM [inhibitor, partial curve, poor fit] |
| c1ccc(CCNc2nc(-c3ccncc3)nc3ccccc23)cc1 | inconclusive: 2.24 µM [inhibitor, full curve, poor fit] |
| Cc1ccsc1C(=O)OCC(=O)c1cc(C)n(CC2CCCO2)c1C (stereo unspecified) | inconclusive: 2.91 µM [inhibitor, full curve, poor fit] |
| Cc1cc(C(=O)Nc2ccc(N3CCCC3)c(Cl)c2)ccc1[N+](=O)[O-] | inconclusive: 3.16 µM [activator, single point] |
| Oc1ccc(/C=N/n2c(-c3ccco3)csc2=Nc2cccnc2)c(O)c1 | inconclusive: 17.8 µM [inhibitor, single point] |
| CN(C)c1ccc(/C=C/C(O)=C2/C(=O)N(C)C3(C)CC2c2ccccc2O3)cc1 (stereo unspecified) | inactive |
| O=C(Nc1ccc(N2CCOCC2)c(Cl)c1)c1ccccc1F | inactive |
| Oc1c(Br)cc(Br)cc1C=NCc1ccccc1 | inconclusive: 12.6 µM [activator, partial curve, poor fit] |
| COc1ccc(S(=O)(=O)NCc2ccccn2)cc1NC(=O)c1ccccc1C | inconclusive: 5.62 µM [inhibitor, full curve, poor fit] |

| SMILES | Potency |
| --- | --- |
| COc1cc(CNc2ccc(N3CCCCC3)cc2)ccc1OCC(=O)NC(C)(C)C | inconclusive: 1.78 µM [inhibitor, partial curve, poor fit] |
| Cc1ccc(-n2c(=O)c3c(cnn3C)n(CC(=O)Nc3ccc(C)cc3C)c2=O)cc1 | inconclusive: 3.55 µM [activator, single point] |
| Cc1nc(CS(=O)(=O)c2ccccn2)sc1C(=O)NNC(=O)c1ccccc1 | inconclusive: 6.31 µM [inhibitor, single point] |
| NC(=O)c1c(NC(=O)C2CC=CCC2C(=O)O)sc2c1CCCCC2 (stereo unspecified) | inconclusive: 0.562 µM [inhibitor, full curve, poor fit] |
| CCc1nnc(NC(=O)c2cnccn2)s1 | inactive |
| CC(=O)Nc1ccc(S(=O)(=O)Oc2ccc(/C=C3\SC(N)=NC3=O)cc2)cc1 | inconclusive: 5.62 µM [activator, single point] |
| O=C(c1ccco1)N1CCN(c2ccc(Cl)c(Cl)c2)CC1 | inactive |
| Cc1sc(NC(=O)C2=COCCO2)nc1-c1ccc(Cl)cc1 | inconclusive: 2.24 µM [activator, single point] |
| Cc1c(NS(=O)(=O)c2ccc(Cl)c(C(=O)OCC(=O)NCc3ccco3)c2)c(=O)n(-c2ccccc2)n1C | inactive |
| N#Cc1ccc(CSc2nnc(-c3ccccn3)n2-c2ccccc2)cc1 | inconclusive: 20 µM [inhibitor, partial curve, poor fit] |
| CC1CCCC(NC(=O)C2CCN(C(=O)Nc3ccccc3)CC2)C1C (stereo unspecified) | inconclusive: 14.1 µM [activator, partial curve, poor fit] |
| O=C(NCc1ccon1)C1CCC(=O)N(CCc2ccc(Cl)cc2)C1 (stereo unspecified) | inactive |
| COc1cccc(NC(=O)c2ccc(CN3CCOCC3)cc2)c1 | inconclusive: 3.16 µM [activator, partial curve, poor fit] |
| O=C(CSc1cccc2cccnc12)Nc1ccc(S(=O)(=O)N2CCOCC2)cc1 | inconclusive: 11.2 µM [inhibitor, partial curve, poor fit] |
| Cc1c(NS(=O)(=O)c2ccc(N3CCCCC3)c([N+](=O)[O-])c2)c(=O)n(-c2ccccc2)n1C | inconclusive: 2.51 µM [inhibitor, single point] |
| O=C(CCNS(=O)(=O)c1ccc(Br)s1)NCc1ccccc1Cl | inconclusive: 11.2 µM [inhibitor, single point] |
| COC(=O)CNC(=O)C1CCN(S(=O)(=O)c2cccc3nsnc23)CC1 | inactive |
| Cc1ccc(C(=O)c2c(N)c(C(=O)Nc3ccccc3Cl)c3ccccn23)cc1 | inconclusive: 3.16 µM [activator, full curve, poor fit] |
| COc1cc(NC(=S)Nc2ccc(OC(F)F)cc2)cc(OC)c1 | inconclusive: 35.5 µM [inhibitor, single point] |
| COc1ccc(CN2CC(=O)N(c3ccccc3C)C2=S)cc1OC | inactive |
| Cc1cccc(C)c1OCC(=O)Nc1ccccc1C(F)(F)F | inactive |
| O=C1CCC(=O)N1OCCCOc1ccc(Br)cc1Cl | inactive |
| O=C1/C(=C/c2cccs2)SC(=S)N1c1ccccc1 | inconclusive: 4.61 µM [inhibitor, partial curve, poor fit] |
| CC(C)OC(=O)c1ccc(OC(=O)c2cccnc2)cc1 | inactive |

| SMILES | Potency |
| --- | --- |
| COc1ccc(CNC(=O)c2nccnc2CO)cc1 | inconclusive: 6.31 µM [inhibitor, single point] |
| CC(=O)Nc1ccc(C2C(=O)c3ccccc3C2=O)cc1 | inactive |
| COc1cc(C2c3cc4c(cc3OC(NCc3ccccc3)C2C)OCO4)cc(OC)c1OC (stereo unspecified) | inactive |
| O=C(O)CC(NC(=O)c1ccc2c(c1)OCO2)c1cccc([N+](=O)[O-])c1 (stereo unspecified) | inconclusive: 35.5 µM [activator, single point] |
| COc1ccc(C2C(C#N)=C(N)Oc3cc(N)ccc32)cc1OC (stereo unspecified) | inconclusive: 15.8 µM [inhibitor, partial curve, poor fit] |
| CSCCC(NC(N)=O)C(=O)Nc1ccc(C)cc1 (stereo unspecified) | inconclusive: 35.5 µM [activator, single point] |
| COc1ccccc1-c1noc(-c2ccc(NCc3ccco3)c([N+](=O)[O-])c2)n1 | inactive |
| COc1ccc(OC)c(C(=O)Nc2ccc3[nH]ccc3c2)c1 | inactive |
| O=C(CN1CCCN(S(=O)(=O)c2ccc(Br)cc2)CC1)Nc1cccc(C(F)(F)F)c1 | inconclusive: 35.5 µM [inhibitor, single point] |
| N#CC(C#N)=Cc1ccc(OC(=O)c2ccccn2)cc1 | inconclusive: 1.12 µM [inhibitor, single point] |
| COc1ccccc1NC(=O)CSc1nnc(CNC(=O)COc2ccc(Cl)cc2)o1 | inactive |
| CC1CCN(C(=O)c2ccc3c(c2)N(Cc2ccccc2)C(=O)c2ccccc2S3(=O)=O)CC1 | inconclusive: 12.6 µM [inhibitor, single point] |
| CCCCC(=O)Nc1ccc(C(N)=O)cc1 | inactive |
| COc1ccc(C2=NOC(COC(=O)c3ccc4ccccc4n3)C2)cc1 (stereo unspecified) | inconclusive: 0.631 µM [inhibitor, partial curve, poor fit] |
| O=C(Nc1ccc(Cl)c(Cl)c1)N1CCOCC1 | inactive |
| CCn1cc(C(=O)O)c(=O)c2cc(F)c(N3CCN(S(=O)(=O)c4ccc(Br)cc4)CC3)cc21 | inactive |
| O=C1C2C3C=CC(CC3)C2C(=O)N1c1ccc(F)cc1 (stereo unspecified) | inconclusive: 0.447 µM [inhibitor, partial curve, poor fit] |
| CCOc1ccc(C(=O)NC(=S)Nc2cccc(NC(=O)c3ccco3)c2)cc1[N+](=O)[O-] | inconclusive: 0.251 µM [inhibitor, full curve, poor fit] |
| COc1ccc(OC(C)=O)c(C2c3cc(OC)c(OC)cc3CCN2C(C)=O)c1 (stereo unspecified) | inconclusive: 13 µM [inhibitor, partial curve, poor fit] |
| CC(C)COC(=O)Cn1nnc2sc(-c3ccccc3)cc2c1=O | inactive |
| CC(=O)c1ccc(Nc2nc3ccc(C)cc3n3cnnc23)cc1 | inactive |
| CCOc1cc(C2NC(=O)NC(c3ccccc3)=C2C(=O)c2ccccc2)c(Br)cc1OCC(=O)O (stereo unspecified) | inconclusive: 7.94 µM [activator, partial curve] |
| CC(=O)c1ccc(NC(=S)NC(=O)c2c(Cl)c(C)nn2C)cc1 | inactive |

Ordered by count of non-hydrogen atoms (falling): three of the compounds above

| SMILES | Potency |
| --- | --- |
| CCOc1ccc(C(=O)NC(=S)Nc2cccc(NC(=O)c3ccco3)c2)cc1[N+](=O)[O-] | inconclusive: 0.251 µM [inhibitor, full curve, poor fit] |
| CCOC(=O)CSc1nnc(Cc2ccccc2)n1-c1cccc(Cl)c1 | inactive |
| COc1ccc(CNC(=O)c2nccnc2CO)cc1 | inconclusive: 6.31 µM [inhibitor, single point] |
